In test [1] the target is T1, C-terminal Myc-tagged wild-type human Organic Solute Transporter beta (human) (UniProt Q86UW2).
T1 sequence: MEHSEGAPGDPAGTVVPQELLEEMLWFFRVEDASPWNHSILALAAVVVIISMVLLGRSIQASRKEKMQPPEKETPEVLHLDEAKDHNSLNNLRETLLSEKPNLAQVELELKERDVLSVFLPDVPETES
Nature of the test: co-IP; HEK293 cells co-transfected with OSTβ-Myc (WT or LL/AA) and OSTα-Flag; lysed in M-PER with protease inhibitors; anti-Myc antibody overnight at 4°C, protein A/G beads; blot with anti-Flag and anti-Myc.

In test [2] the target is T2, LL/AA mutant of C-terminal Myc-tagged human Organic Solute Transporter beta (human) (UniProt Q86UW2).
T2 sequence: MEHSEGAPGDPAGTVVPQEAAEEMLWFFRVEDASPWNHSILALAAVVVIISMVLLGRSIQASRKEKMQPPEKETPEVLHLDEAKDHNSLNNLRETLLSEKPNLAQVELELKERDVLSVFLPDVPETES
The description is as above.

Results are given in words; binding and its absence hold for the method and conditions named. In cells and extracts the contact can be indirect. Some entries that bind do so weakly or less than the wild type. Where a sequence is shown, tags or fusion partners need not be part of it.

B1: C-terminal Flag-tagged wild-type human Organic Solute Transporter alpha (protein, UniProt Q86UW1 1-340)
chain: MEPGRTQIKLDPRYTADLLEVLKTNYGIPSACFSQPPTAAQLLRALGPVELALTSILTLLALGSIAIFLEDAVYLYKNTLCPIKRRTLLWKSSAPTVVSVLCCFGLWIPRSLVLVEMTITSFYAVCFYLLMLVMVEGFGGKEAVLRTLRDTPMMVHTGPCCCCCPCCPRLLLTRKKLQLLMLGPFQYAFLKITLTLVGLFLVPDGIYDPADISEGSTALWINTFLGVSTLLALWTLGIISRQARLHLGEQNMGAKFALFQVLLILTALQPSIFSVLANGGQIACSPPYSSKTRSQVMNCHLLILETFLMTVLTRMYYRRKDHKVGYETFSSPDLDLNLKA
Regarding B1, the binding result was “binds” in test [1] and “binds weakly” in test [2].

These data come from publication PMC4924846.
